In article doi:10.1101/2021.12.08.471779:
Residue numbers refer to the chain shown, from its start. These are yes or no findings as the source states them, for the method shown. In cells and extracts the contact can be indirect. Some entries that bind do so weakly or less than the wild type.

Protein sequences, listed by entry. Tags and fused reporters are not part of them. Lines headed by an entry give the natural chain unless they say otherwise; changes in a name come on top.
UniProt P02929, whole entry, looked up, stated change not applied: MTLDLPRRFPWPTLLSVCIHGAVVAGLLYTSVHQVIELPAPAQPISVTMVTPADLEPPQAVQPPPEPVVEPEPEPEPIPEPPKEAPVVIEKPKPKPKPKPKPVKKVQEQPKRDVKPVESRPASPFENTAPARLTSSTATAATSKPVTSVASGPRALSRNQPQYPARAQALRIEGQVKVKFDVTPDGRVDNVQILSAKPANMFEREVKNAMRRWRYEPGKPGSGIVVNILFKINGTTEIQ

Assays:
Assay in all cases: cross-linking
[1] = biological target: T1, FepA E576C (Escherichia coli K-12) (UniProt P05825)
T1 sequence: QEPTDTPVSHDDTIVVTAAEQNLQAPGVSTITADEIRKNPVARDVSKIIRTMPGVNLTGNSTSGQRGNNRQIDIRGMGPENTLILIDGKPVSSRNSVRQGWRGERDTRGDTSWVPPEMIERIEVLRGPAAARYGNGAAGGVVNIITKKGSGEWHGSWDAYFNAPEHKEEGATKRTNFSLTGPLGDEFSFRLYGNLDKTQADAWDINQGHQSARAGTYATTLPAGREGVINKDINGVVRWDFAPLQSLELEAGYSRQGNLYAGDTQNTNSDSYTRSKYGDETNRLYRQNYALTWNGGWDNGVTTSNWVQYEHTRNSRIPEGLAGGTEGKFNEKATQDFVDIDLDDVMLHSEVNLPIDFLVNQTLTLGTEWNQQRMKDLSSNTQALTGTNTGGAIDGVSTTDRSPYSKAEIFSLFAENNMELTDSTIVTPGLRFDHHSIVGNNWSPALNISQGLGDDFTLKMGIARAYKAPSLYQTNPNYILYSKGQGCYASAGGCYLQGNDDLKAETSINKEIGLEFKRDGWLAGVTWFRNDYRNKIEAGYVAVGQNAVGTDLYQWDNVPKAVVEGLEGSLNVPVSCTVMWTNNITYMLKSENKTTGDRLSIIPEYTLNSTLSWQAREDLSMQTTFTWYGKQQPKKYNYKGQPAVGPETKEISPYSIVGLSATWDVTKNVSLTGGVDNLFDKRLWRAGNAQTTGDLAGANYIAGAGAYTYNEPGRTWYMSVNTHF

[2] = biological target: T2, FepA L23C (Escherichia coli K-12) (UniProt P05825)
T2 sequence: T1 sequence with L23C, C576E

[3] = biological target: T3, FepA T32C (Escherichia coli K-12) (UniProt P05825)
T3 sequence: T1 sequence with T32C, C576E

Substance	binding [1]	binding [2]	binding [3]
TonB C18G A209C (from UniProt P02929 1-239)	no binding	no binding	no binding
TonB C18G R204C (from UniProt P02929 1-239)		binds	binds
TonB C18G Q160C (from UniProt P02929 1-239)	no binding	binds	binds
TonB C18G V206C (from UniProt P02929 1-239)	no binding	no binding	no binding
